Test results: patent publication US4871717 (dated 1989)

Experiment: general procedure: Boc solid-phase peptide synthesis; Benzhydrylamine-polystyrene resin; diisopropylcarbodiimide
Conditions: whole synthesis, scale 0.5 mmole

MPA-Tyr-D-Trp-Lys-Val-Cys-Thr-NH2
isolated mass: 129 mg
